According to the supplement of paper PMC10849652:
The other results are listed elsewhere or left out.

Sequences of proteins named here, by UniProt entry; tags and fusion partners are left off. A change or cut given only in a name is not applied to a line headed by its entry.
UniProt Q9Y3X0: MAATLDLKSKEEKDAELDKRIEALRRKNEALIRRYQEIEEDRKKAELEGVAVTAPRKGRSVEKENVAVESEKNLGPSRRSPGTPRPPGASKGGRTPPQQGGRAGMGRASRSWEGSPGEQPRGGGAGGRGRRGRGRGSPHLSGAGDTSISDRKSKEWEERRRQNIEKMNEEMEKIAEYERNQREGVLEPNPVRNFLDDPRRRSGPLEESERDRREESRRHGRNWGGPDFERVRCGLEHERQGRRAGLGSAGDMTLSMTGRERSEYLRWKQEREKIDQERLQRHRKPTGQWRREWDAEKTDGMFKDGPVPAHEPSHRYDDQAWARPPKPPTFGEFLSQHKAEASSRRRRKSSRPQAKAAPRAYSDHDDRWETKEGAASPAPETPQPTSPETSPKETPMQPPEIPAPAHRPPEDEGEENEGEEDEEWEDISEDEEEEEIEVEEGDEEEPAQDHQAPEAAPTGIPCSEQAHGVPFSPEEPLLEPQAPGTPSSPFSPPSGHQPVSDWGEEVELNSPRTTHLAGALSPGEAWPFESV
UniProt Q9BSQ5: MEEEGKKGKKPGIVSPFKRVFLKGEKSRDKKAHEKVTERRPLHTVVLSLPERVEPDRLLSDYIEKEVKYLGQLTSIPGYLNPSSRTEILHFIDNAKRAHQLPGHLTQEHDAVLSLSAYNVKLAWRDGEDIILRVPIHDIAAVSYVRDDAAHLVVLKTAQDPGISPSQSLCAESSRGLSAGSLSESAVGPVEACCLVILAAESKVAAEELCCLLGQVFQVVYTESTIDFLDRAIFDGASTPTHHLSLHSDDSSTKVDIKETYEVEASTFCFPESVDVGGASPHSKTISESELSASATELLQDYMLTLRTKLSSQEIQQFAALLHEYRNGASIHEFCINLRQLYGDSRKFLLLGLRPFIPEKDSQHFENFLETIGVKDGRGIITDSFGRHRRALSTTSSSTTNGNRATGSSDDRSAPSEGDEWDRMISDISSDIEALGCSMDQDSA
UniProt Q86WR0: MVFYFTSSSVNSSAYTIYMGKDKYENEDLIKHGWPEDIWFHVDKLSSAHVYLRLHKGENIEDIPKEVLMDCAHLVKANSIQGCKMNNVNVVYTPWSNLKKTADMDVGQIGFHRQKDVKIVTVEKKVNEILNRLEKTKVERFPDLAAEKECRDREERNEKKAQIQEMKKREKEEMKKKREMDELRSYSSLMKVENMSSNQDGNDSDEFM
UniProt Q9BUN5: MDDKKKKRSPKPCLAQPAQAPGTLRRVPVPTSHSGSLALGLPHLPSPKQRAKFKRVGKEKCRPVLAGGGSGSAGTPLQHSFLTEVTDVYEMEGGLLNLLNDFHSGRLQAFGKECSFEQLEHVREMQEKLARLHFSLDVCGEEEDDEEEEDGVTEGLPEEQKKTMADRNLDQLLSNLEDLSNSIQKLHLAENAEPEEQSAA
UniProt P55211: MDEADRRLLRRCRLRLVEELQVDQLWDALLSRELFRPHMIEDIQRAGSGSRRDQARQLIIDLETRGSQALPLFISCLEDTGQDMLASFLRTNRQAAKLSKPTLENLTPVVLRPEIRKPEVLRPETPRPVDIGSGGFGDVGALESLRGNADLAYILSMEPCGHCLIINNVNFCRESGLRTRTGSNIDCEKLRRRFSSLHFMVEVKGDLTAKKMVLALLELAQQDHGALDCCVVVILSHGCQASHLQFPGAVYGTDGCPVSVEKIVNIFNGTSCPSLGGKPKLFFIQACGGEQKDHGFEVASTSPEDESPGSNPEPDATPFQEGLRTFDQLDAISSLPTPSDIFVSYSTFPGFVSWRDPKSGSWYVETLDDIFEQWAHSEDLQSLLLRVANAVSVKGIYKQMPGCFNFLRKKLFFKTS
UniProt Q2TAC2: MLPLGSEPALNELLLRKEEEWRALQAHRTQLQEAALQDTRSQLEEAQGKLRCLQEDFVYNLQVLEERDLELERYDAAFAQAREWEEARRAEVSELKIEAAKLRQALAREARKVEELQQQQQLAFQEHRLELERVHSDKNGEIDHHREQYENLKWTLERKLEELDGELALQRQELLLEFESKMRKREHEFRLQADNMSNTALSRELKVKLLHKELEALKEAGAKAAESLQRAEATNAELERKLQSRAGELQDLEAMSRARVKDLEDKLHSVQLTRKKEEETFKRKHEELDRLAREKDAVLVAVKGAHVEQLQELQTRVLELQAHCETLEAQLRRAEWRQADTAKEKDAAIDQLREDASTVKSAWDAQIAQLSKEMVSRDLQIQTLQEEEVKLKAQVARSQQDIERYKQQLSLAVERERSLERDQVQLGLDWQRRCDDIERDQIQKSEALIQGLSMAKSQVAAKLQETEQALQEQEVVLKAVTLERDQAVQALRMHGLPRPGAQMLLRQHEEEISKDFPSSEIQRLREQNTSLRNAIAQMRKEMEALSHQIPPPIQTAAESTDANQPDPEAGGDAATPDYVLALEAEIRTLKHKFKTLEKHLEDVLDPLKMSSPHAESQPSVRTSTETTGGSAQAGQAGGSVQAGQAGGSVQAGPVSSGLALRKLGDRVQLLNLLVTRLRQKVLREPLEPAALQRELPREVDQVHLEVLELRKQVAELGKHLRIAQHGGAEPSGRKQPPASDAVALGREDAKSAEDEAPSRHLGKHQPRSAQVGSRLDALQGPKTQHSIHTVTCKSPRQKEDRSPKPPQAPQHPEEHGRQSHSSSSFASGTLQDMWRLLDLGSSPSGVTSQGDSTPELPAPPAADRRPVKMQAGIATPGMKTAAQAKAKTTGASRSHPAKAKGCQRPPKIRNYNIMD
UniProt Q96MW1: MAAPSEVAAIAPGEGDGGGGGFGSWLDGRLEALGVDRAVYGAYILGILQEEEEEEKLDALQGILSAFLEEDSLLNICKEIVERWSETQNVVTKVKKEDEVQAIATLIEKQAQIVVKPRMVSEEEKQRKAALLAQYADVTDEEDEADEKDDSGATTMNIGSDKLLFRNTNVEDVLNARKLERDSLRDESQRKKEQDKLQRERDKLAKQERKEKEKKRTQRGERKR
UniProt Q9Y2V2: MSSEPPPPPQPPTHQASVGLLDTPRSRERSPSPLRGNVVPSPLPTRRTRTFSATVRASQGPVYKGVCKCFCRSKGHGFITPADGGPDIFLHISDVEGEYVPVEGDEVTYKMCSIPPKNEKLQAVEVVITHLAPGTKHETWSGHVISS
UniProt Q14790: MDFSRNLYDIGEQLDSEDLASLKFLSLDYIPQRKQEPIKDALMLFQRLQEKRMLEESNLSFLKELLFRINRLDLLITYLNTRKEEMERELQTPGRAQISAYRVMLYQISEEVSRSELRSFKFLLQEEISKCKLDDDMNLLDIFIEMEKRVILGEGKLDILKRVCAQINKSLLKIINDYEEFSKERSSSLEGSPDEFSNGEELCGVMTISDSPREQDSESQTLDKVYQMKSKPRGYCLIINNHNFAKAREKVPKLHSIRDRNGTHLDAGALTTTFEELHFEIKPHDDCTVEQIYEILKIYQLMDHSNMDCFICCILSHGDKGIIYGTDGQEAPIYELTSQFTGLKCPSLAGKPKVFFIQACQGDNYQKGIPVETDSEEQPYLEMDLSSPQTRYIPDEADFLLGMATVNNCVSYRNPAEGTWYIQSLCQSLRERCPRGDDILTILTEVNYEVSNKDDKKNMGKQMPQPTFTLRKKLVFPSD
UniProt P04040: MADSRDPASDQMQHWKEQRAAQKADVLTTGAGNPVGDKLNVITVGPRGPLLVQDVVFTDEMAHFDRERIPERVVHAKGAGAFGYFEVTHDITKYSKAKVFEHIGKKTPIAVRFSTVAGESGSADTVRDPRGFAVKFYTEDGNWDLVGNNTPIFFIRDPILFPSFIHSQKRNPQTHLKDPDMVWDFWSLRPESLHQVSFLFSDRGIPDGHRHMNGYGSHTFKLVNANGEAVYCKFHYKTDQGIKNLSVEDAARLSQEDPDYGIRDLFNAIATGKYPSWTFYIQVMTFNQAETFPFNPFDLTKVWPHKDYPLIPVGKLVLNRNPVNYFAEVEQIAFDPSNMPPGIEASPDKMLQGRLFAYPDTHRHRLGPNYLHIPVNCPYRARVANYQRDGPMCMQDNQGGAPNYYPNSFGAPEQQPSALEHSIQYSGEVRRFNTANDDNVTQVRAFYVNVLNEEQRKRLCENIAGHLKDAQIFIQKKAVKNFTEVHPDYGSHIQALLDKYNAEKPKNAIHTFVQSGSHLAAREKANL
UniProt Q96A33: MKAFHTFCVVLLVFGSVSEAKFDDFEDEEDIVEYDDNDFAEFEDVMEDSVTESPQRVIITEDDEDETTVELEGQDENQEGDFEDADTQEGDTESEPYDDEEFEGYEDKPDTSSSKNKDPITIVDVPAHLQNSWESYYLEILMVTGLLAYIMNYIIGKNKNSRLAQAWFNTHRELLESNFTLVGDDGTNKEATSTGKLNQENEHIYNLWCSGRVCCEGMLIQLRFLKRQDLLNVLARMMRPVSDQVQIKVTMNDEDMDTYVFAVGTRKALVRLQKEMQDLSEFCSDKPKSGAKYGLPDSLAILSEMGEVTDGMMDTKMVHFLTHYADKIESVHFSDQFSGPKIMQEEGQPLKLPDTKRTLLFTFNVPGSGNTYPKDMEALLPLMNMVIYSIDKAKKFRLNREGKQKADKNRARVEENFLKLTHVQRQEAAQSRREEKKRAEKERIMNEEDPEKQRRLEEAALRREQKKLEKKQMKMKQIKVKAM
UniProt Q8N163, whole entry, looked up: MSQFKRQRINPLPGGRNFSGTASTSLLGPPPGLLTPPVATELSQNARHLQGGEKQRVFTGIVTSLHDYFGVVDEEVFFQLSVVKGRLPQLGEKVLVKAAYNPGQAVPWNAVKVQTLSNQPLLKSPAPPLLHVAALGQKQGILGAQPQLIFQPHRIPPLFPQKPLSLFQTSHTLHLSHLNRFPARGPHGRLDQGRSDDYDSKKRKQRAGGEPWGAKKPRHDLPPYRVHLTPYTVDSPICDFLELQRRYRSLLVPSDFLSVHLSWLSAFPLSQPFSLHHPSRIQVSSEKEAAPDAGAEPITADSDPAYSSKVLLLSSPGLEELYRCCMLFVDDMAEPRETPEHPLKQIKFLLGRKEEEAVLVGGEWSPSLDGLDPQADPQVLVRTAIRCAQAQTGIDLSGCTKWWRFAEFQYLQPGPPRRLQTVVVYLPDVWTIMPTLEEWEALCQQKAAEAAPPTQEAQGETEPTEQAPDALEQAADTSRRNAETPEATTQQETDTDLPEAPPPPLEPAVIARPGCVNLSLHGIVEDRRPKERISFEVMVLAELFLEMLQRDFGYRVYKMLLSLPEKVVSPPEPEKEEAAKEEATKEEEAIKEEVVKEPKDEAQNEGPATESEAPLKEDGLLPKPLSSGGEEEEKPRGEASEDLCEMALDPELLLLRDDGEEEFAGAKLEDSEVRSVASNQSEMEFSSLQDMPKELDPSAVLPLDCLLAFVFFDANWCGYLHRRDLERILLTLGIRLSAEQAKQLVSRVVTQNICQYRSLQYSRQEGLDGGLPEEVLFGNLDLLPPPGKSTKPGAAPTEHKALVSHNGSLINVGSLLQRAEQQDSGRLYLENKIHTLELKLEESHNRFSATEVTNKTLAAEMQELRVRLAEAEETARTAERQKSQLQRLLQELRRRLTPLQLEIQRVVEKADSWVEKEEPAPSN
UniProt Q6PK04: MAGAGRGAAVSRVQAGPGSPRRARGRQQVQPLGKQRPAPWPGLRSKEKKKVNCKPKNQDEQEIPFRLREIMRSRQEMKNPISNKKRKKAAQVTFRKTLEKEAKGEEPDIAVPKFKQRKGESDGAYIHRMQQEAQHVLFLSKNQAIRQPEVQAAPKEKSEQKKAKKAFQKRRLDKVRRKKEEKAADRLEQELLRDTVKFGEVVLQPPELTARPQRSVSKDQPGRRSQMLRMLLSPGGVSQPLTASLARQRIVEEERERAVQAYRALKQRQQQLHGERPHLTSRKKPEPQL
UniProt P86791: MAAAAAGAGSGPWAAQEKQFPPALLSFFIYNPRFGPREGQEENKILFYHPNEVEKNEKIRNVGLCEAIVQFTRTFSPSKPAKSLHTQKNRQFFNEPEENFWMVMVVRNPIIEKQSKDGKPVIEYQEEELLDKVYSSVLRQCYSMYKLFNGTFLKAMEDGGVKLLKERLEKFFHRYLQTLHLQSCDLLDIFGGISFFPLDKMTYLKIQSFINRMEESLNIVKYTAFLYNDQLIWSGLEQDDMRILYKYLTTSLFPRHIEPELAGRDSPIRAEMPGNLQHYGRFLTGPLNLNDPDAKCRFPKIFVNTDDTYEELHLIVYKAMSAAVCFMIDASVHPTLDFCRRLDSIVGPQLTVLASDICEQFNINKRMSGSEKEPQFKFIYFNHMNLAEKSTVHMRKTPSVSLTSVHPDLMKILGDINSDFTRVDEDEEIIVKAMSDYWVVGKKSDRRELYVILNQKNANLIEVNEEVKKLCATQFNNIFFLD
UniProt Q8IVM0: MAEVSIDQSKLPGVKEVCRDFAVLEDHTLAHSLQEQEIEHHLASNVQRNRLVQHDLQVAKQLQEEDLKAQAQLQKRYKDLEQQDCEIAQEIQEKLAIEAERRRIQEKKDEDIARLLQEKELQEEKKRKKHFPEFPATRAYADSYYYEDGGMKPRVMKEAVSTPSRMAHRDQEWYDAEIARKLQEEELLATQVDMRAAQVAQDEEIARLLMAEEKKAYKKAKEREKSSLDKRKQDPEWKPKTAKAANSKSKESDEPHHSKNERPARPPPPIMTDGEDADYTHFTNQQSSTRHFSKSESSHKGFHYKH

How the values were obtained:
Assay in all cases: log2 fold change, soluble protein after heating vs DMSO (PISA); higher = thermal stabilisation; K562 lysate, 10 uM; active = over 0.2 and 3.5 SD of the protein, either way, in both replicates (recomputed)
[1] = compound: C1=CC=C(C=C1)[C@H](COC2=CC3=C(C=C2)NC(=O)N3)NC(=O)C4=CC=CN(C4=O)CC5=CC(=C(C=C5)F)F
How it was run: (§1)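 Values give the log-two fold change in thermal stability against solvent controls, from duplicates. Crude K562 extract at 1 mg/mL protein, made by dounce homogenisation in PBS pH 7.4 with 1 mM MgCl2, was treated with 10 μM compound for 30 min. After 3 min heating across 48°C-58°C, aliquots were pooled, adjusted to 0.5% NP-40 at 4°C and centrifuged at 21,000xg for 90 min. The supernatant was measured by TMTpro 16plex LC-MS/MS with channel sums equalised.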

[2] = compound: CC1=C(SC2=C1C(=N[C@H](C3=NN=C(N32)C)CC(=O)N)C4=CC=C(C=C4)Cl)C
How it was run: as §1

[3] = compound: CC1=C2C(=CC=C1)N=C(N(C2=O)C3=CC=CC=C3C)CN4C=NC5=C(N=CN=C54)N
How it was run: as §1

[4] = compound: Cc1sc2c(c1C)C(c1ccc(Cl)cc1)=N[C@@H](CC(=O)OC(C)(C)C)c1nnc(C)n1-2
How it was run: as §1

[5] = compound: c1ccc([C@@H]2C[C@H]2NC2CCNCC2)cc1
How it was run: as §1

Measured: log2 fold change

CCDC9 (UniProt Q9Y3X0)
inactive: [1] 0.043 | [2] 0.03 | [3] -0.024 | [4] -0.025 | [5] -0.065

CARD8 isoform 5 (UniProt Q9Y2G2)
inactive: [1] 0.004 | [2] 0.037 | [3] 0.031 | [4] -0.02 | [5] -0.083

CCDC85C (UniProt A6NKD9)
inactive: [1] 0.049 | [2] 0.071 | [3] -0.04 | [4] 0.001 | [5] 0.077

CCAR1 (UniProt Q8IX12)
inactive: [1] 0.028 | [2] 0.018 | [3] 0.001 | [4] 0.044 | [5] -0.027

CCM2 isoform 2 (UniProt Q9BSQ5)
inactive: [1] 0.035 | [2] 0.007 | [3] 0.029 | [4] 0.015 | [5] 0.01

CCDC117 (UniProt Q8IWD4)
inactive: [1] 0.075 | [2] -0.054 | [3] 0.123 | [4] -0.011 | [5] -0.005

CBR4 (UniProt Q8N4T8)
inactive: [1] 0.066 | [2] -0.016 | [3] 0.062 | [4] 0.047 | [5] 0.048

CCNB1 (UniProt P14635)
inactive: [1] -0.019 | [2] 0.063 | [3] 0.038 | [4] -0.032 | [5] 0.036

CBWD2 (UniProt Q8IUF1)
inactive: [1] 0.033 | [2] 0.023 | [3] 0.079 | [4] 0.008 | [5] 0.162

CCDC25 (UniProt Q86WR0)
inactive: [1] 0.008 | [2] 0.035 | [3] 0.023 | [4] -0.015 | [5] 0.164

CCDC124 (UniProt Q96CT7)
inactive: [1] 0.049 | [2] -0.037 | [3] -0.014 | [4] -0.007 | [5] 0.034

CCDC28B (UniProt Q9BUN5)
inactive: [1] 0.077 | [2] -0.019 | [3] -0.006 | [4] -0.104 | [5] 0.008

CCPG1 isoform 5 (UniProt Q9ULG6)
inactive: [1] -0.069 | [2] -0.118 | [3] 0.046 | [4] -0.082 | [5] -0.026

CCT6A (UniProt P40227)
inactive: [1] 0.007 | [2] -0.007 | [3] -0.01 | [4] 0.004 | [5] 0.025

CBX3 (UniProt Q13185)
inactive: [1] 0.017 | [2] 0.003 | [3] 0.028 | [4] -0.052 | [5] -0.183

CASP9 (UniProt P55211)
inactive: [1] 0.041 | [2] -0.024 | [3] 0.019 | [4] -0.05 | [5] -0.048

CCDC57 (UniProt Q2TAC2)
inactive: [1] -0.039 | [2] 0.001 | [3] -0.013 | [4] 0.012 | [5] -0.019

CCDC91 (UniProt Q7Z6B0)
inactive: [1] 0.002 | [2] -0.027 | [3] 0 | [4] -0.013 | [5] 0.036

CD3EAP isoform 2 (UniProt O15446)
inactive: [1] 0.001 | [2] 0.017 | [3] -0.011 | [4] -0.043 | [5] -0.057

CCDC43 (UniProt Q96MW1)
inactive: [1] 0.039 | [2] -0.028 | [3] 0.039 | [4] -0.034 | [5] -0.028

CD151 (UniProt P48509)
inactive: [1] -0.027 | [2] -0.012 | [3] -0.023 | [4] 0.031 | [5] -0.155

CC2D1B isoform 2 (UniProt Q5T0F9)
inactive: [1] 0.024 | [2] -0.022 | [3] -0.011 | [4] 0.011 | [5] -0.009

Quoted from the entries so far (five entries):
CCDC28B (UniProt Q9BUN5)
inactive: [1] 0.077 | [2] -0.019 | [3] -0.006 | [4] -0.104 | [5] 0.008

CCPG1 isoform 5 (UniProt Q9ULG6)
inactive: [1] -0.069 | [2] -0.118 | [3] 0.046 | [4] -0.082 | [5] -0.026

CCT6A (UniProt P40227)
inactive: [1] 0.007 | [2] -0.007 | [3] -0.01 | [4] 0.004 | [5] 0.025

CBX3 (UniProt Q13185)
inactive: [1] 0.017 | [2] 0.003 | [3] 0.028 | [4] -0.052 | [5] -0.183

CASP9 (UniProt P55211)
inactive: [1] 0.041 | [2] -0.024 | [3] 0.019 | [4] -0.05 | [5] -0.048

(further entries)

CARHSP1 (UniProt Q9Y2V2)
inactive: [1] -0.031 | [2] 0.027 | [3] 0.019 | [4] -0.053 | [5] 0.005

CCDC174 (UniProt Q6PII3)
inactive: [1] 0.02 | [2] -0.011 | [3] -0.022 | [4] 0.035 | [5] -0.014

CCT7 (UniProt Q99832)
inactive: [1] -0.012 | [2] -0.012 | [3] -0.022 | [4] 0.014 | [5] 0.019

CCNC (UniProt P24863)
inactive: [1] 0.045 | [2] -0.09 | [3] -0.035 | [4] -0.036 | [5] -0.129

CD58 (UniProt P19256)
inactive: [1] -0.02 | [2] 0.024 | [3] -0.005 | [4] -0.038 | [5] -0.09

CCDC85B (UniProt Q15834)
inactive: [1] -0.033 | [2] -0.132 | [3] 0.08 | [4] -0.04 | [5] -0.034

CASP8 isoform 9 (UniProt Q14790)
inactive: [1] -0.034 | [2] 0.014 | [3] 0.089 | [4] 0.036 | [5] 0.014

CCDC59 (UniProt Q9P031)
inactive: [1] 0.032 | [2] 0.033 | [3] -0.004 | [4] -0.03 | [5] -0.069

CBFA2T3 (UniProt O75081)
inactive: [1] -0.029 | [2] -0.01 | [3] 0.058 | [4] 0.009 | [5] 0.019

CAT (UniProt P04040)
inactive: [1] 0.016 | [2] 0.005 | [3] -0.01 | [4] -0.019 | [5] 0.004

CCNY (UniProt Q8ND76)
inactive: [1] -0.04 | [2] 0.048 | [3] -0.104 | [4] -0.064 | [5] -0.028

CCNT1 (UniProt O60563)
inactive: [1] 0.001 | [2] 0.087 | [3] -0.077 | [4] -0.1 | [5] 0.028

CCNK isoform 4 (UniProt O75909)
inactive: [1] -0.018 | [2] -0.045 | [3] -0.026 | [4] -0.047 | [5] -0.175

CCDC47 (UniProt Q96A33)
inactive: [1] -0.043 | [2] 0.005 | [3] 0.022 | [4] 0.017 | [5] 0.018

CD81 (UniProt P60033)
inactive: [1] 0.06 | [2] -0.151 | [3] 0.051 | [4] -0.233 | [5] -0.037

CCDC12 (UniProt Q8WUD4)
inactive: [1] 0.114 | [2] -0.041 | [3] 0.03 | [4] 0.004 | [5] 0.009

CD320 (UniProt Q9NPF0)
inactive: [1] 0.09 | [2] -0.089 | [3] 0.011 | [4] 0.017 | [5] -0.027

CASC4 (UniProt Q6P4E1)
inactive: [1] -0.008 | [2] 0.027 | [3] 0.039 | [4] -0.015 | [5] -0.055

CCDC13 (UniProt Q8IYE1)
inactive: [1] -0.09 | [2] -0.099 | [3] 0.089 | [4] -0.448 | [5] 0.007

CARD9 (UniProt Q9H257)
inactive: [1] -0.039 | [2] 0.065 | [3] 0.023 | [4] -0.009 | [5] 0.035

CD2BP2 (UniProt O95400)
inactive: [1] 0.038 | [2] 0.037 | [3] -0.015 | [4] -0.007 | [5] 0.079

CCAR2 (UniProt Q8N163)
inactive: [1] 0.001 | [2] 0.005 | [3] -0.007 | [4] 0.003 | [5] 0.004

CCDC137 (UniProt Q6PK04)
inactive: [1] 0.018 | [2] 0.005 | [3] -0.01 | [4] 0.081 | [5] -0.086

CBR1 (UniProt P16152)
inactive: [1] 0.03 | [2] -0.004 | [3] 0.013 | [4] -0.021 | [5] -0.056

CAST isoform 6 (UniProt P20810)
inactive: [1] 0.012 | [2] -0.011 | [3] -0.023 | [4] -0.041 | [5] -0.048

CD2AP (UniProt Q9Y5K6)
inactive: [1] 0.02 | [2] 0.008 | [3] -0.009 | [4] -0.018 | [5] -0.008

CARS2 (UniProt Q9HA77)
inactive: [1] 0.064 | [2] 0.099 | [3] 0.011 | [4] 0.026 | [5] 0.02

CASTOR2 (UniProt A6NHX0)
inactive: [1] 0.011 | [2] 0.019 | [3] 0.033 | [4] 0.083 | [5] 0.021

CCDC82 (UniProt Q8N4S0)
inactive: [1] 0.046 | [2] -0.045 | [3] -0.049 | [4] -0.036 | [5] 0.053

CCZ1 (UniProt P86791)
inactive: [1] 0.01 | [2] -0.022 | [3] 0.011 | [4] -0.01 | [5] 0.013

CCDC50 isoform 2 (UniProt Q8IVM0)
inactive: [1] 0.004 | [2] 0.043 | [3] -0.02 | [4] 0.008 | [5] 0.008
